Test results from publication PMC3681974.
No constants are given. Whether binding was seen depends on the method and setting. Binding seen in cells or lysates may run through a third protein. Some entries that bind do so weakly or less than the wild type.

Sequences of proteins named here, by UniProt entry; tags and fusion partners are left off.
UniProt P81425: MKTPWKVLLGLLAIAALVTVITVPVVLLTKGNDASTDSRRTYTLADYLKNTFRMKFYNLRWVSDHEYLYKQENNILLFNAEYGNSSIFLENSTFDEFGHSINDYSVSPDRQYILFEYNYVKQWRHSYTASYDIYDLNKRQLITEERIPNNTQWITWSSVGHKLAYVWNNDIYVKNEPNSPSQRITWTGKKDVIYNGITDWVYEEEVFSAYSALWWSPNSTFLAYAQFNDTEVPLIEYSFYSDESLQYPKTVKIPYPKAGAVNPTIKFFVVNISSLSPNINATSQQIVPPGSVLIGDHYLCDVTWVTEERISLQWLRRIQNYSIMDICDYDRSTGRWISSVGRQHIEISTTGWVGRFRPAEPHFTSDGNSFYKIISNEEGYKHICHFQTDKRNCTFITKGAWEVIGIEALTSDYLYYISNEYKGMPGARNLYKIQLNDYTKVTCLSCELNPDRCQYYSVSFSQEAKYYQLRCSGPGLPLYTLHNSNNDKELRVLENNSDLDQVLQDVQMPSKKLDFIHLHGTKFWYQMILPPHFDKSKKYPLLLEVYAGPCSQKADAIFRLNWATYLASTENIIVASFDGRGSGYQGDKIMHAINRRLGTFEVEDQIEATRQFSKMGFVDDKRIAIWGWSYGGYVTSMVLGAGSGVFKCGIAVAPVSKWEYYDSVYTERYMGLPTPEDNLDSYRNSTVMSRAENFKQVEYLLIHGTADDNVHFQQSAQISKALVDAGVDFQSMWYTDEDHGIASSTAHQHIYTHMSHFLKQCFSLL

Target: T1, Tetraspanin CD9 (bovine (endogenous in cauda epididymal fluid microvesicles)) (UniProt P30932)
T1 sequence: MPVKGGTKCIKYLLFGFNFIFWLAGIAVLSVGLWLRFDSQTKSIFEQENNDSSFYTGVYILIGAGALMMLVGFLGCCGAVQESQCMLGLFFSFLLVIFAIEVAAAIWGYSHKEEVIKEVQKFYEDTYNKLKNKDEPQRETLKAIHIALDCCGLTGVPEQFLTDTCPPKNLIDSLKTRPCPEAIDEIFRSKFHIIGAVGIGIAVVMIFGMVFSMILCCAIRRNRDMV
Assay: co-IP; CD9-positive microvesicles lysed in Brij O10; CD9 immunoprecipitated, western blot for CD26 and CD224; normal mouse IgG as negative control

- binding: binds
Substance: DPP4_BOVIN Dipeptidyl peptidase 4/CD26 (from UniProt P81425 1-765)
